From PubChem BioAssay AID1508600 (Functional Genomics Laboratory (NCATS/FGL), 2020)
Among all 53,000 sequences or so, about 3,700 (7%) were called active.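 How the source made its calls: active means gene knockdowns whose robust z-score for IL-1 alpha signal is at least 2 or at most -2, so actives lie on both sides; inactive means the rest.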 The list shows a part of the results.

Test: Components of the Cytosolic LPS Sensing Pathway: Gene Identification via Genome-wide siRNA Screen;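 further: robust z of the log signal after scaling to non-targeting control siRNA wells of the plate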
Conditions: RAW264.7 macrophages, IL-1a HTRF, actives lie on both sides, screened at 100 nM (by protocol), cells primed 5 h with Pam3CSK4 first
Outline: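 Read-out: IL-1a HTRF on supernatant, divided by plate negative-control median ×100, log-transformed and converted to robust z-score. Cells were RAW264.7 given 100 nM siRNA, Pam3CSK4-primed 5 hours, then LipidA-transfected 24 hour.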
For GGAGCAUGGUGUGUUGUGATT against Clec9a, the z-score was inactive: 0.0854. In the case of GGAUAGACAGAAAUUCUCATT against Flot1, the z-score is reported as inactive: 1.43. With CCACGUGUUUGCAUUCAAATT against Ano5 the z-score was inactive: 1.4. With GGUAUUACAAGGUCAUAUCTT against Nol12 the z-score was inactive: -0.357. In the case of CCUGACCUAAUCGAGAAUGTT against Speer2, the z-score is reported as inactive: -0.279. In the case of GGAGGAAAAAUGAAAAGUATT against Clpx, the z-score is reported as inactive: 0.98. With GCAGCAGUAAUAGUCAUACTT against Ccnj the z-score was inactive: 0.801. For GGGUUCAUUCUUAUGUAUGTT against Prr5l, the z-score was inactive: 0.35. For GGAACAAUUGUUCCUGUGATT against Kcne1, the z-score was active: -2.04. In the case of CCGAUUUAAUCUCUUAGAATT against Ets2, the z-score is reported as inactive: 0.9. In the case of GGUCAAUAUUGGCUUAUGUTT against Tmem42, the z-score is reported as inactive: -1.43. With GGCGGAAAUGCAAAUGCAATT against Rpf2 the z-score was inactive: 0.202. For CAUUGGUAUUGCCAAGGCATT against Olfr1330, the z-score was inactive: 0.373. In the case of GCAAGCUGUACGCCAAUGUTT against Champ1, the z-score is reported as inactive: 1.73. With GGAAGGGUCAGAAAAAUGUTT against Slc1a2 the z-score was inactive: 0.202. With CCGUAAUCGCUGCUUCAUATT against Cideb the z-score was inactive: 1.44. In the case of GGAAGGCCCUAGAAAGGACTT against Gm5094, the z-score is reported as inactive: 0.209. For GCCUAGAUACAGCUCCUUGTT against Clybl, the z-score was inactive: -0.111. For GCAUACCUAGACUGAAAACTT against Rilpl2, the z-score was inactive: -0.477. With GGAGCUAAAGCUGCUGAUUTT against S100g the z-score was inactive: -0.404. In the case of CCUUCUAGAGUACAUCAUATT against Prl7d1, the z-score is reported as inactive: 0.298. For CGGAUGAUCGAUUUAAAGUTT against Nol10, the z-score was inactive: -0.00606. In the case of GGUAUAAGGAUUCUUUGAATT against Alg13, the z-score is reported as active: -2.8. With GCCUUCAUCAAAAAACACUTT against Txndc2 the z-score was inactive: -0.0169. With GCACGAGGAUGUGAUAUUCTT against Txndc2 the z-score was inactive: -0.65. For CCGAGAACCGAACUUACCATT against Fam168a, the z-score was inactive: 1.3. With CCUAUCAACCUAAACUCCATT against Car8 the z-score was inactive: -0.459. For GGCUUUAGGGAGUUGCUUCTT against Pacrgl, the z-score was inactive: -1.07. In the case of GCAUAUUUCUAAGCUGCAUTT against Qdpr, the z-score is reported as inactive: -0.439. For GGACCACCAUUGUGAUCCATT against Kcnk2, the z-score was inactive: 0.808. With GGAUAGUAACGGAAACUUGTT against Usp25 the z-score was inactive: -0.21. For GGAAGAACUCUCAGAAAAATT against Txk, the z-score was inactive: 0.399. With GUUUAAAACCUAUGGCAUCTT against Rps21 the z-score was inactive: 0.374. For GGGCAUCAGCUAUUAAAGATT against Tpmt, the z-score was inactive: 0.488. With GGAAAUGACAUCUUCCUUGTT against Rnf135 the z-score was inactive: -0.265. For GGACUAAGCAGACCAUACATT against Tigar, the z-score was inactive: -0.759. For CCAGUAACCAGUGCAAUCATT against Tnp2, the z-score was inactive: -0.751. With GGUCACUUGGAAUUUGUAATT against Gata6 the z-score was inactive: 1.2. In the case of GUGGACUUCUUCCUGUUGGTT against Dolk, the z-score is reported as inactive: -0.784. In the case of GGAAAAAGAUCUUGGAAGUTT against Rwdd2a, the z-score is reported as inactive: 0.279. In the case of GGAAAUCAGUGUCUUUUACTT against Sumf1, the z-score is reported as inactive: 1.03. In the case of GCACAUAAAAUGCUCACUGTT against Rgr, the z-score is reported as inactive: -0.084. In the case of GGGAAAGUUUUGUUCUGUATT against Ezr, the z-score is reported as inactive: 0.31. In the case of “CCAAGUAUAGCUAUGCACATT against 4833432P19Rik”, the z-score is reported as inactive: -0.374. For GCUGCAUUCAGUGAAGAUCTT against Lgals7, the z-score was inactive: -0.635. In the case of GGAGCUACCUAUCCUUUGUTT against Brinp1, the z-score is reported as inactive: 0.0902. For CCAAAGGUGUGUGAUACUGTT against Fam241b, the z-score was inactive: 0.286. With GGAAGAAGCAAAGAACUAUTT against Spg20 the z-score was inactive: 0.552. For GGGCUUUCAAAGAUGAAAUTT against Mas1, the z-score was inactive: -0.214. For GCUUACAGCAAGAUCAAGGTT against Pip4k2b, the z-score was inactive: -0.21. In the case of GGAAGUUCCUCUCUACUUATT against Col8a2, the z-score is reported as inactive: -0.126. With “AUCAAGGUUAUGCAUAACUTT against 3110053B16Rik” the z-score was inactive: -0.0251. For GGCCCAACACCUUUAUCAUTT against Akt1, the z-score was active: 2.77. For GGAAGUGCCACCUGUAUUATT against Tbc1d2, the z-score was inactive: -0.564. In the case of GGUUUGAAAUAUUGUGGAUTT against Spdye4b, the z-score is reported as inactive: -1.23. In the case of GGUGAGAAGGAUUUGUAAATT against Clec4d, the z-score is reported as inactive: -0.0352. In the case of GGCUGGAUGUCAGAUUGCATT against Olfr1389, the z-score is reported as inactive: -1.38. For GGAAAUCAAAGCUUUUGAGTT against Plaa, the z-score was inactive: 0.494. For CGCACAGGUCAUUCUCGUGTT against Rab3b, the z-score was inactive: 0.0202. With GGACAAGGUAUCAUAUUGGTT against St3gal1 the z-score was inactive: -0.456. With GGAAGGCCGCAUACUGAUGTT against Scgn the z-score was inactive: -0.218. For GGACAUAACUGUUUUAACATT against Dph7, the z-score was inactive: -1.16. With GGACACUUCUUAUGAUGACTT against Nrf1 the z-score was inactive: -0.184. In the case of GGCCAGGAAAGCUACUUAGTT against Kcnj11, the z-score is reported as inactive: -0.328. For CGAAAGAAGUCAAUACAGATT against Zbtb40, the z-score was inactive: 0.696. With GCAUCUGCCAAAUUCAAUGTT against Hsf4 the z-score was inactive: 0.688. In the case of CCUAUGAAGCUCCAUUAUGTT against Madcam1, the z-score is reported as inactive: -0.195. In the case of AACAGGAAUCUUCUGUAGUTT against Ttc9c, the z-score is reported as inactive: -0.0255. With GGGAAUUUGAGACCAUUUATT against Stap1 the z-score was inactive: 0.356. With GCUCCAUGGAUAUUUCUGGTT against Pias1 the z-score was inactive: -0.178. With GGACAGACUGAUUUACAAATT against Nav2 the z-score was inactive: 1.46. With GGUUGCAUUGGGAACUUUCTT against Cd82 the z-score was inactive: 0.172. For GCCACACUGAAAUAAUUUGTT against Slco1a4, the z-score was inactive: -0.817. With GGCCUUUAUCAGAAAGGUGTT against Grina the z-score was inactive: -1.48. In the case of GGGUCAUUGUUUUUUCUGUTT against Armc10, the z-score is reported as inactive: -1.04. With GGCAUCUCACUGGAAGUGATT against Txndc11 the z-score was inactive: -0.186. In the case of CCACAGCACCGGAUAAAACTT against Mrgprb3, the z-score is reported as inactive: -0.0665. In the case of GGAAUAAAGAAGUGAAAUCTT against Olfr1009, the z-score is reported as inactive: 0.233. For GUAGUUGUUCUGAGAAAUCTT against Krtap19-2, the z-score was inactive: -0.49. For CCAAAUUGCUUACAUGAUATT against Greb1, the z-score was inactive: 1.44. With GCAAGAUACUGACCACUAGTT against Krt25 the z-score was inactive: 0.14. In the case of GCUGAUGCGGAGAUUUUGGTT against Thap12, the z-score is reported as inactive: -0.191. In the case of GGAACUCGUCAUGAGAGAATT against Cndp1, the z-score is reported as inactive: -0.155. In the case of GGCUAAUGAAGCACGCAGATT against Tspan33, the z-score is reported as inactive: 0.264. In the case of GCCACAAUGGGCAGUCUUATT against Kcp, the z-score is reported as inactive: 0.0139. For GGAGAACGAAAGGAUGAAATT against Rpusd4, the z-score was inactive: -1.55. In the case of GGAUAACUUGAUCCACCACTT against Olfr382, the z-score is reported as inactive: 0.26. In the case of GGAGAUCGAUGGAGACUUCTT against Sftpa1, the z-score is reported as inactive: -0.773. With GGAUUUAGUGUAAUGCCAATT against Pfn4 the z-score was inactive: -0.354. With CGAGCACACUUUUGAAGAATT against Gm5089 the z-score was inactive: 1.33. With GCCAGUAUGCAAAGACUCATT against Gm4788 the z-score was inactive: 0.806. For GGACACAGACAUGUAUAAUTT against Sorbs2, the z-score was inactive: -0.174. For GCAGCAAGCUUAAUUACAGTT against Lins1, the z-score was inactive: -1.32. With CGGUUACAGGUGAAAUCCUTT against Sval1 the z-score was inactive: -1.36. For GGUAAUUAGUGAAAUGGUUTT against Pum2, the z-score was inactive: -1.32. With CCCAGUUGGUGUUUAUAUATT against Ppp3cb the z-score was inactive: 0.115. With CGAUUUGGCCUUGAUGGGUTT against Wtip the z-score was inactive: 0.116. For GCGGUUAGUGAAAGAAGGATT against Pptc7, the z-score was inactive: 0.132. With GCAGACCAUAUUACAAGUUTT against Herc3 the z-score was inactive: 1.04. For GCAAUGCAUGAAGACUCGUTT against Ecsit, the z-score was inactive: 0.835. In the case of GCAGAUGAUACCUGGGCAATT against Mtmr14, the z-score is reported as active: 2.68. For CCAAGAGUUGUCAAUAUAATT against Crisp3, the z-score was inactive: 0.768. For GGCUAUAAAGAAGAGUCUGTT against Adhfe1, the z-score was inactive: -0.572. For GCUAACAUGUGUGCAGACCTT against Csf2, the z-score was inactive: -0.185. In the case of GCUAAGUACAACUUCACAATT against Olfr303, the z-score is reported as inactive: -0.918. For GCCAUGGAAAAUUUCCUCCTT against Olfr357, the z-score was inactive: 0.52. For “CGCACAGUACCUUUACCUCTT against A630052C17Rik”, the z-score was inactive: 0.514.
